Results are given in words; binding and its absence hold for the method and conditions named. In cells and extracts the contact can be indirect. Some entries that bind do so weakly or less than the wild type. Tags and fused reporters may be left off the sequences shown.
Biological target: T1, ERΔK-GFP (ERECTA lacking the cytoplasmic kinase domain, C-terminal GFP fusion) (Arabidopsis thaliana) (UniProt Q42371)
T1 sequence: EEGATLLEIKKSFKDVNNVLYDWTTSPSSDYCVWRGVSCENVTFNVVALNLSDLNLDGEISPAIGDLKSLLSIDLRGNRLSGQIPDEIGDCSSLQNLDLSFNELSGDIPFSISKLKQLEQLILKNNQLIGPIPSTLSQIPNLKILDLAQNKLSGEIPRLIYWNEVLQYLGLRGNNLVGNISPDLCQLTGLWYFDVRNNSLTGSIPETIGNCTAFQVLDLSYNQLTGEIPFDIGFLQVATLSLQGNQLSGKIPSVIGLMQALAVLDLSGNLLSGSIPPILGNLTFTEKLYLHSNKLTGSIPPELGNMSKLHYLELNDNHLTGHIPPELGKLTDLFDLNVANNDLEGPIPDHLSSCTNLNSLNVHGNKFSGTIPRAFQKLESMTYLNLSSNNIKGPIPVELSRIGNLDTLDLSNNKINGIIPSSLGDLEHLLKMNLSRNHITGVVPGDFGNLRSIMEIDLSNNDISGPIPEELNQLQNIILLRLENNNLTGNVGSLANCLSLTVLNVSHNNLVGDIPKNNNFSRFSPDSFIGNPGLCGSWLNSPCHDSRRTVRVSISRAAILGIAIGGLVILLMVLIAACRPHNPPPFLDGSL
Test: co-IP; N. benthamiana leaves transiently co-expressing ERΔK-GFP and BAK1-HA, infiltrated with water (mock) or PcBMM spores for 15 or 30 min; extract in 50 mM Tris pH 7.5, 150 mM NaCl, 1% IGEPAL CA-630; IP with anti-GFP antibody and Protein G Dynabeads at 4°C, washes with 2% IGEPAL; immunoblot with anti-HA

- binding: binds
B1: BAK1-HA (BRASSINOSTEROID … 1-associated kinase 1, full length, with a C-terminal HA fusion) (receptor, UniProt Q94F62 26-615)
chain: NAEGDALSALKNSLADPNKVLQSWDATLVTPCTWFHVTCNSDNSVTRVDLGNANLSGQLVMQLGQLPNLQYLELYSNNITGTIPEQLGNLTELVSLDLYLNNLSGPIPSTLGRLKKLRFLRLNNNSLSGEIPRSLTAVLTLQVLDLSNNPLTGDIPVNGSFSLFTPISFANTKLTPLPASPPPPISPTPPSPAGSNRITGAIAGGVAAGAALLFAVPAIALAWWRRKKPQDHFFDVPAEEDPEVHLGQLKRFSLRELQVASDNFSNKNILGRGGFGKVYKGRLADGTLVAVKRLKEERTQGGELQFQTEVEMISMAVHRNLLRLRGFCMTPTERLLVYPYMANGSVASCLRERPESQPPLDWPKRQRIALGSARGLAYLHDHCDPKIIHRDVKAANILLDEEFEAVVGDFGLAKLMDYKDTHVTTAVRGTIGHIAPEYLSTGKSSEKTDVFGYGVMLLELITGQRAFDLARLANDDDVMLLDWVKGLLKEKKLEALVDVDLQGNYKDEEVEQLIQVALLCTQSSPMERPKMSEVVRMLEGDGLAERWEEWQKEEMFRQDFNYPTHHPAVSGWIIGDSTSQIENEYPSGPR

From PMC4923796
